Consider 54 sequences from paper PMC7819943, “Rice protein-binding microarrays: a tool to detect cis-acting elements near promoter regions in rice”.

This is one part of the list.

The target of this experiment is T1, OsSMF1 (Oryza sativa, UniProt Q6ZLB0 1-436).
T1 sequence: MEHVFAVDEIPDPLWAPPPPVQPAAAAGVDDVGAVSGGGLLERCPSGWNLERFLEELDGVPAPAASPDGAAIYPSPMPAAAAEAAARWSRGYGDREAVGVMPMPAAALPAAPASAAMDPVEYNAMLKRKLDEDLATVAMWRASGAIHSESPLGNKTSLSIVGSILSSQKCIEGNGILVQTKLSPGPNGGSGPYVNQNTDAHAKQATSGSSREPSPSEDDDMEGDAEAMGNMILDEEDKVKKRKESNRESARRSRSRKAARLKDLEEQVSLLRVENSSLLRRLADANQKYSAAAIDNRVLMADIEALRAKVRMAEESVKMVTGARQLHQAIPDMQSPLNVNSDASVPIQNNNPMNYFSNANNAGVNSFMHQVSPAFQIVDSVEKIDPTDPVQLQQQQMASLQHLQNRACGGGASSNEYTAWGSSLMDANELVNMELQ
Briefly: protein-binding microarray (RPBM); PBS, 2% BSA, 51.3 ng/ul salmon testes DNA, 50 uM zinc acetate, 200 nM TF, 25 C, 1 h; high values mean tight binding. Particulars: protein: recombinant; tags: N-terminal polyhistidine and DsRed monomer fusion (pET32a); chain copies: 2; label: CyDye5-dUTP incorporated in the synthesized complementary strand; 3' TTTTT single-stranded linker to array surface; dsDNA, one strand shown. The essentials:
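Per-feature fluorescence intensity (arbitrary units), read on an Axon 4000B scanner, is the binding signal. Transcription factors carrying an N-terminal polyhistidine tag and DsRed fusion were expressed in E. coli BL21-CodonPlus and purified on Ni–NTA. A custom Agilent array, made double-stranded by primer extension with Cy5-dUTP and blocked with 2% BSA, was incubated with 200 nM protein in PBS, 2% BSA, salmon testes DNA and 50 µM zinc acetate at 25 °C for 1 h and then washed.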
On to “AGCAGTCCGTACAGCCCCGACACAGATGCATGACGCGTGGCGGAGTCACCTAGTGCAG”, for which the binding signal was 7720 fluorescence intensity (a.u.).

On to “CCCCAAACCCTAAATATTTCTCCACGGCGGCAGGCATACACGGAGTCACCTAGTGCAG”, for which the binding signal was 3510 fluorescence intensity (a.u.).

In the case of “GCCGATAGAGCAAATGATGAACCCTGTCTTCTCTTGATCTCGGAGTCACCTAGTGCAG”, the binding signal is 3200 fluorescence intensity (a.u.).

On to “CATCGGCTCAAAGATAAATAATACATCATCGGCGACTGGCCGGAGTCACCTAGTGCAG”, for which the binding signal is 3290 fluorescence intensity (a.u.).

With “TGCAAAGTTGCAAGCTCGCAAACTGCTAATTACGCTATTTCGGAGTCACCTAGTGCAG”, the binding signal is 3270 fluorescence intensity (a.u.).

Take “TTAGCTAGACTACAGCTCTAGTAGAGCTGTAGAGGTAGAGCGGAGTCACCTAGTGCAG”: the binding signal is 44000 fluorescence intensity (a.u.).

Consider “TTCATGACTTGACGTCACCAGCTTTCCTTACCCCGTAAGCCGGAGTCACCTAGTGCAG”, for which the binding signal is 20100 fluorescence intensity (a.u.).

For “GCTGCATCTACCCTCTAATCTTGTGAAGAATAGTCTGCATCGGAGTCACCTAGTGCAG”, the binding signal is 27000 fluorescence intensity (a.u.).

For the sequence “TCCTATCCTATGCATGAAATGAGTCAGAGGCTCACAATAGCGGAGTCACCTAGTGCAG”, the binding signal was 5160 fluorescence intensity (a.u.).

With “TCCTGCCACCACCACCATGGCACCAGCTCAGCTCAGCTCACGGAGTCACCTAGTGCAG”, the binding signal was 4240 fluorescence intensity (a.u.).

On to “GTTTCTCCACGCATCAAGGACTCAGCTCGGTTTAGTTAGTCGGAGTCACCTAGTGCAG”, for which the binding signal is 5340 fluorescence intensity (a.u.).

“TTTGTGAAAGCAACATATCTCATATTGATCTATCTTACTACGGAGTCACCTAGTGCAG”: the binding signal was 3190 fluorescence intensity (a.u.).

On to “CTATATCAATATGAAATGACGCACTATCTCATTTGTATTGCGGAGTCACCTAGTGCAG”, for which the binding signal is 3560 fluorescence intensity (a.u.).

For the sequence “TCGACTCTGTGATGACAAATAGACAACACATTTCTCTCATCGGAGTCACCTAGTGCAG”, the binding signal is 3290 fluorescence intensity (a.u.).

For the sequence “CCGCGTCCGCGCCCGTCCCCACGCCACCAGGCGGTCTCCGCGGAGTCACCTAGTGCAG”, the binding signal was 3240 fluorescence intensity (a.u.).

Regarding “AAGTGGCTCTAAGTGTGCCAAAGTGCGTTCGTGTCGATCGCGGAGTCACCTAGTGCAG”, the binding signal was 3200 fluorescence intensity (a.u.).

As for “TTAGAATCCATCTAATAACAACGTGTCCTTGTTTCCCATTCGGAGTCACCTAGTGCAG”, the binding signal is 4740 fluorescence intensity (a.u.).

With “TGCGTATGGGATTGGGCTGCAACATGCGCGTGCACCACGTCGGAGTCACCTAGTGCAG”, the binding signal was 4000 fluorescence intensity (a.u.).

“GTTGCGTAGGCAGCGGCAACGCATGCACAGTCACACACCCCGGAGTCACCTAGTGCAG”: the binding signal was 5630 fluorescence intensity (a.u.).

With “GCATCGACGAGCTCCGACGTGGCGGCCGCCAACGACGAGCCGGAGTCACCTAGTGCAG”, the binding signal is 7640 fluorescence intensity (a.u.).

Consider “TAGGGAGTCGAGGACGTCATCGTTGAGCTCGCTGATTAGGCGGAGTCACCTAGTGCAG”, for which the binding signal is 6510 fluorescence intensity (a.u.).

For the sequence “TACATATTCTTGTGTTGTAGACTTGTCACTGTCAGTCTTGCGGAGTCACCTAGTGCAG”, the binding signal is 4400 fluorescence intensity (a.u.).

Turning to “CCCTAGCTTGAGGCATGCATATAATACAGTGTATGCTATCCGGAGTCACCTAGTGCAG”, the binding signal is 3150 fluorescence intensity (a.u.).

“ACTTAATTTAAGTGGCTCCGACTTGACGTACGACTGATCTCGGAGTCACCTAGTGCAG”: the binding signal was 3560 fluorescence intensity (a.u.).

As for “CACGTACGTGACTCGCGCGCTGACGTCATCCGGGCTTCCACGGAGTCACCTAGTGCAG”, the binding signal was 20300 fluorescence intensity (a.u.).

In the case of “TAACACAACTATTTACTCAGCTCACGTGTTTCATTAACAACGGAGTCACCTAGTGCAG”, the binding signal is 3340 fluorescence intensity (a.u.).

Take “AGTCGCATCTACATTCTACAGCGTCTTCCATTTACTGACGCGGAGTCACCTAGTGCAG”: the binding signal is 3830 fluorescence intensity (a.u.).

Consider “GTGCAAGTTTTCTTTTCAATGACAAGGCTATCGATGACGCCGGAGTCACCTAGTGCAG”, for which the binding signal is 3780 fluorescence intensity (a.u.).

“CAAGCCAAGCCAAGTCACACACCGCATGCGCGCGGTAGCACGGAGTCACCTAGTGCAG”: the binding signal was 4160 fluorescence intensity (a.u.).

In the case of “AACCAGCCACGTAGGCGCCACGTCAGCCAAAACTGCTATCCGGAGTCACCTAGTGCAG”, the binding signal is 35900 fluorescence intensity (a.u.).

For the sequence “TTATAAATATTTCGATTGAATCATATCCTAAACAATCATACGGAGTCACCTAGTGCAG”, the binding signal is 4660 fluorescence intensity (a.u.).

On to “GGGCACGCGACGCGCCATGGCGTCGGCGGCGGAGGCGGTGCGGAGTCACCTAGTGCAG”, for which the binding signal was 3280 fluorescence intensity (a.u.).

Consider “ACGAATGCATGTGTTACCAACAAGTAATGCGTAGTACGGTCGGAGTCACCTAGTGCAG”, for which the binding signal is 5060 fluorescence intensity (a.u.).

As to “CGCCGGCGCCGCCGAGCTCCACCGCTCCGATCCCACTCCGCGGAGTCACCTAGTGCAG”, the binding signal is 6650 fluorescence intensity (a.u.).

Turning to “TGCAAACATGTCATTGTCGGTGGGCCCATTCACACTTACCCGGAGTCACCTAGTGCAG”, the binding signal is 3230 fluorescence intensity (a.u.).

For the sequence “GGTTTCTGGCCAACCGACGTCAAGGAAGAAAGGGCTCATGCGGAGTCACCTAGTGCAG”, the binding signal was 3360 fluorescence intensity (a.u.).

Consider “ACGTTCGCGCGGAGCGTGACGTAGGCCGTCGTCTCGCACCCGGAGTCACCTAGTGCAG”, for which the binding signal is 8420 fluorescence intensity (a.u.).

Regarding “GGCGGGGCCCACACGCCACGCCACGCGGGCCCACCCGCCACGGAGTCACCTAGTGCAG”, the binding signal is 4730 fluorescence intensity (a.u.).

Consider “AAATACAAAAGAAAATAGGAGAGGAGGGATACCAGGATTCCGGAGTCACCTAGTGCAG”, for which the binding signal is 36100 fluorescence intensity (a.u.).

On to “GGCGGCGGGCAGACGACTTGGAGCGGGAGACGGCGACGGGCGGAGTCACCTAGTGCAG”, for which the binding signal is 3270 fluorescence intensity (a.u.).

In the case of “GGAGTTGAAATCCAGAATTAACACATGCTCGTGGCGCTGCCGGAGTCACCTAGTGCAG”, the binding signal is 3480 fluorescence intensity (a.u.).

“GTGTACTTGTGAAAGCACGTATCCACCGCGTCAGTATATTCGGAGTCACCTAGTGCAG”: the binding signal was 4070 fluorescence intensity (a.u.).

Regarding “TAAAGTGTCATGAGGTGGCTGCTGATGTGGCATCAAGAATCGGAGTCACCTAGTGCAG”, the binding signal is 6910 fluorescence intensity (a.u.).

Turning to “CTTCAAGAAGGTTACGCTGACAGAACGGCGACAACGTCCGCGGAGTCACCTAGTGCAG”, the binding signal is 3220 fluorescence intensity (a.u.).

As for “GTGTGTGGATTAGTTGGAAGGATCAGTGCAATTATTGACTCGGAGTCACCTAGTGCAG”, the binding signal is 3960 fluorescence intensity (a.u.).

Take “TACAAAGCCGCGTGGCCCTCCACCTCCGCACGGGTCGCTCCGGAGTCACCTAGTGCAG”: the binding signal was 3490 fluorescence intensity (a.u.).

In the case of “GAGGCACCCGCGCTAGTACATAAAGCCACCGAGGTGCGATCGGAGTCACCTAGTGCAG”, the binding signal is 3850 fluorescence intensity (a.u.).

With “TACTCTCGTACTGGTCATTGGGCGGTACACGTGTATCTTTCGGAGTCACCTAGTGCAG”, the binding signal is 12900 fluorescence intensity (a.u.).

Consider “ACTGTTCAACGTCACGGAGGGCAGGGTCTCACCAACTCGCCGGAGTCACCTAGTGCAG”, for which the binding signal is 3180 fluorescence intensity (a.u.).

In the case of “GGCGACGGTGCACGCCGGCATGACGCTGGACCAGTGCAGGCGGAGTCACCTAGTGCAG”, the binding signal was 3520 fluorescence intensity (a.u.).

On to “AGCGGTTGGAGGTATGTCTTTCTCAGCCGGCTTGTAATCACGGAGTCACCTAGTGCAG”, for which the binding signal is 3640 fluorescence intensity (a.u.).

As for “CGTTCTAATCCGCAGTCAGTAGAAATCATGGGCAGTCTGCCGGAGTCACCTAGTGCAG”, the binding signal is 3320 fluorescence intensity (a.u.).

Turning to “ACGGCGGGAACAATTGTGGGCGGTGGCCTTGGCCGAATCGCGGAGTCACCTAGTGCAG”, the binding signal was 55000 fluorescence intensity (a.u.).

For “TTGTTCCTACAGTGACAGGCTCTGACTGCAGGATGGAAGACGGAGTCACCTAGTGCAG”, the binding signal is 24400 fluorescence intensity (a.u.).
